Test results reported in PubChem BioAssay AID540276 (National Center for Advancing Translational Sciences (NCATS), 2011).
The campaign covered roughly 300,000 compounds. About 5,400 (1.8%) were called active. Inconclusive means that the source gave no clear call. Such entries were picked first, then a sample of the others. Calls come from the whole dose curve; tested in HEK293 cells. Potencies beside an inconclusive call are fits to weak or partial responses and may not hold up.

Assay: qHTS for inhibitors of binding or entry into cells for Marburg Virus
Details: Marburg virus pseudotyped entry inhibition, cell reporter; activity change, negative = inhibition: at 37.8 µM (top of the series) unless noted
% is set by controls: 0 for no effect and ±100 for the full control effect; potency is the fitted concentration of half-maximal effect.

SMILES	Potency	activity change, negative = inhibition
COc1cc(CNCCNC(=O)c2nonc2N)ccc1OCc1ccc(Cl)cc1	inconclusive: 35.5 µM [inhibitor, single point]	–
Cc1ccc(CN2CCS(=O)(=O)CC2)o1	inconclusive: 20 µM [activator, single point]	–
Cc1ccc(S(=O)(=O)n2nc(-c3ccccc3)nc2NCc2ccccc2Cl)cc1	inconclusive: 1.12 µM [inhibitor, partial curve, poor fit]	–
COc1ccc(NC(=S)NC(=O)c2cccnc2)cc1	–	inactive: 21.6% [at 46.1 µM]
CCOC(=O)CNC(=O)c1ccc2[nH]c3c(c2c1)CCCC3	inconclusive: 25.9 µM [activator, partial curve, poor fit]	–
CCOc1ccc2nc(CN3CCN(Cc4ccccc4OCC)C(CCO)C3)ccc2c1 (configuration not stated)	inconclusive: 35.5 µM [inhibitor, single point]	–
Cn1cnc([N+](=O)[O-])c1Nc1cccc(O)c1	–	inactive: 20.8%
COc1ccc(N(CC(=O)NC2CC3CCC2C3)S(=O)(=O)c2ccc(C)cc2)cc1OC (configuration not stated)	inconclusive: 1.58 µM [inhibitor, partial curve, poor fit]	–
O=C(OCc1nc2ccccc2s1)c1ccc([N+](=O)[O-])o1	–	inactive: -0.654% [at 46.1 µM]
CC(OC(=O)C1CSC2(c3ccc(F)cc3)CCC(=O)N12)C(=O)NC(N)=O (configuration not stated)	inconclusive: 0.708 µM [inhibitor, partial curve, poor fit]	–
COc1ccccc1NC(=O)N(CCN1CCCC1)Cc1cc2cc(C)ccc2[nH]c1=O	inconclusive: 29.1 µM [inhibitor, single point]	–
O=C(NCCc1c[nH]c2ccccc12)C1CCN(S(=O)(=O)c2ccc(F)cc2)CC1	inconclusive: 25.1 µM [inhibitor, single point]	–
COc1ccc(S(=O)(=O)N2CCC(C(=O)NCCN3CCOCC3)CC2)cc1C	inconclusive: 10 µM [activator, partial curve]	–
O=C(/C=C/Nc1ccc(F)c(Cl)c1)c1ccco1	inconclusive: 6.31 µM [activator, single point]	–
Cc1ccccc1-c1noc(-c2cccs2)n1	inconclusive: 13 µM [activator, partial curve, poor fit]	–
CCc1ccc(NC(=O)C2CCCN(S(=O)(=O)c3cccc4cccnc34)C2)cc1 (configuration not stated)	inconclusive: 35.5 µM [inhibitor, single point]	–
S=C(NC1CCCCCC1)NC1CCCC1	inconclusive: 3.16 µM [activator, partial curve, poor fit]	–
COc1ccccc1N(CC(=O)Nc1ccccc1C(=O)NCC(C)C)S(C)(=O)=O	–	inactive: 3.51%
Cc1cc(C(=O)N/N=C2\CC(=O)c3ccccc32)c(C)n1-c1ccccc1	inconclusive: 6.31 µM [activator, partial curve, poor fit]	–
COc1c(Cl)cnn(-c2ccccc2)c1=O	inconclusive: 3.55 µM [inhibitor, single point]	–
O=S(=O)(/N=C(/Nc1cccc2ccccc12)c1ccccc1)c1cccs1	inconclusive: 11.2 µM [inhibitor, single point]	–
O=C(CNC1CCCCC1)NN=C(c1ccccc1)c1ccccc1	inconclusive: 35.5 µM [inhibitor, single point]	–
CCOC(=O)c1c(CSc2ccc(CC)cc2)oc2ccc(O)c(CN(C)C)c12	active: 4.47 µM	–

SMILES	Potency	activity change, negative = inhibition
Cc1nc2c3cc(F)ccc3n(Cc3ccccc3F)c2s1	inconclusive: 10 µM [inhibitor, partial curve, poor fit]	–
O=C(COc1ccccc1)Nc1ccc(OC(F)(F)C(F)F)c(NC(=O)COc2ccccc2)c1	inconclusive: 29.1 µM [inhibitor, single point]	–
CCN1C(=NCCc2cccs2)N[C@@H](CCc2ccccc2)[C@H](C(=O)NCCc2cccs2)[C@H]1C	inconclusive: 2.66 µM [activator, partial curve, poor fit]	–
CCN(CC)c1ccc(C(=O)Nc2ccc3nc(N(CC)CC)cc(C)c3c2)cc1	active: 11.2 µM	–
CCOC(=O)c1ccc(NC(=O)CCn2c(=O)oc3ccccc32)cc1	inconclusive: 11.2 µM [activator, partial curve, poor fit]	–
NS(=O)(=O)c1ccc(CCNC(=O)c2ccc[nH]c2=S)cc1	inconclusive: 10 µM [inhibitor, partial curve, poor fit]	–
COc1ccc(OC)c(NC(=O)CCCSc2ccccc2)c1	–	inactive: -3.76% [at 46.1 µM]
COc1ccc(C2N=C(c3ccccc3)C(C)(C)N2O)cc1OC (configuration not stated)	inconclusive: 16.4 µM [activator, single point]	–
CCOC(=O)C1CCCN(C(=O)Cn2ncc3c4ccccc4n(Cc4ccc(F)cc4)c3c2=O)C1 (configuration not stated)	inconclusive: 7.08 µM [inhibitor, partial curve, poor fit]	–
CCOc1ccc(CC(=O)NNC(=O)/C=C/C(=O)O)cc1	–	inactive: 2.95%
CCC(=O)N1CCc2cc(S(=O)(=O)NC(C(=O)NC3CCCc4ccccc43)C(C)C)ccc21 (configuration not stated)	inconclusive: 2.06 µM [inhibitor, partial curve, poor fit]	–
Cc1ccccc1-c1noc(CCC(=O)NC2CCCCC2)n1	–	inactive: -6.57% [at 46.1 µM]
O=C(CN1CCN(c2ccccn2)CC1)Nc1ccccc1C(=O)Nc1ccccc1	–	inactive: 0.194% [at 46.1 µM]
Cc1ccc(C)c(-c2ccc(=O)n(Cc3ccc(F)cc3Cl)n2)c1	inconclusive: 11.2 µM [inhibitor, single point]	–
Cc1cc2c(c(=O)n1CCN(C)C)C(c1ccc(Cl)cc1)C(C#N)=C(N)O2 (configuration not stated)	–	inactive: -12.1%
COc1ccc2c(c1OC)C(=O)N(c1ccc(O)cc1)C2=O	–	inactive: -6.57% [at 46.1 µM]
c1ccc(Nc2nc(N3CCOCC3)nc(N3CCOCC3)n2)cc1	inconclusive: 22.4 µM [inhibitor, single point]	–
COC(=O)C1=C[C@@]2(c3ccc(F)cc3[C@@H](OC)[C@@H]2C)[C@@H]2C=C[C@H]1C2	–	inactive: 2.06% [at 14.2 µM]
CCC/C=N/NC(=O)c1cc(-c2ccccc2)nc2ccccc12	–	inactive: 13.5%
Cc1ccccc1NC(=O)c1sc2nc3c(c(-c4ccco4)c2c1N)CCC3	–	inactive: 0.198%
COC(=O)CN(c1cc([N+](=O)[O-])ccc1OC)S(C)(=O)=O	–	inactive: -0.554% [at 46.1 µM]
CCSc1ccccc1C(=O)N1CCC2(CC1)CC(=O)c1ccccc1O2	inconclusive: 8.91 µM [inhibitor, partial curve, poor fit]	–
COc1ccc(/C=N/Nc2nc(Nc3ccccc3)nc(N3CCCCC3)n2)c(OC)c1	inconclusive: 14.1 µM [inhibitor, partial curve, poor fit]	–

14 structures already listed, sorted by count of non-hydrogen atoms, low to high.
SMILES	Potency	activity change, negative = inhibition
CCOc1ccc(CC(=O)NNC(=O)/C=C/C(=O)O)cc1	–	inactive: 2.95%
Cc1nc2c3cc(F)ccc3n(Cc3ccccc3F)c2s1	inconclusive: 10 µM [inhibitor, partial curve, poor fit]	–
Cc1ccccc1-c1noc(CCC(=O)NC2CCCCC2)n1	–	inactive: -6.57% [at 46.1 µM]
COC(=O)C1=C[C@@]2(c3ccc(F)cc3[C@@H](OC)[C@@H]2C)[C@@H]2C=C[C@H]1C2	–	inactive: 2.06% [at 14.2 µM]
c1ccc(Nc2nc(N3CCOCC3)nc(N3CCOCC3)n2)cc1	inconclusive: 22.4 µM [inhibitor, single point]	–
CCOC(=O)c1ccc(NC(=O)CCn2c(=O)oc3ccccc32)cc1	inconclusive: 11.2 µM [activator, partial curve, poor fit]	–
Cc1cc2c(c(=O)n1CCN(C)C)C(c1ccc(Cl)cc1)C(C#N)=C(N)O2 (configuration not stated)	–	inactive: -12.1%
Cc1ccccc1NC(=O)c1sc2nc3c(c(-c4ccco4)c2c1N)CCC3	–	inactive: 0.198%
CCN(CC)c1ccc(C(=O)Nc2ccc3nc(N(CC)CC)cc(C)c3c2)cc1	active: 11.2 µM	–
O=C(CN1CCN(c2ccccn2)CC1)Nc1ccccc1C(=O)Nc1ccccc1	–	inactive: 0.194% [at 46.1 µM]
COc1ccc(/C=N/Nc2nc(Nc3ccccc3)nc(N3CCCCC3)n2)c(OC)c1	inconclusive: 14.1 µM [inhibitor, partial curve, poor fit]	–
CCC(=O)N1CCc2cc(S(=O)(=O)NC(C(=O)NC3CCCc4ccccc43)C(C)C)ccc21 (configuration not stated)	inconclusive: 2.06 µM [inhibitor, partial curve, poor fit]	–
O=C(COc1ccccc1)Nc1ccc(OC(F)(F)C(F)F)c(NC(=O)COc2ccccc2)c1	inconclusive: 29.1 µM [inhibitor, single point]	–
CCOC(=O)C1CCCN(C(=O)Cn2ncc3c4ccccc4n(Cc4ccc(F)cc4)c3c2=O)C1 (configuration not stated)	inconclusive: 7.08 µM [inhibitor, partial curve, poor fit]	–

The list goes on:

SMILES	Potency	activity change, negative = inhibition
COC(=O)c1ccc(CNC(=O)c2nc(Cn3nc(C)c(Br)c3C)no2)cc1	inconclusive: 31.6 µM [activator, partial curve, poor fit]	–
Cc1ccccc1-n1c(SCc2csc(Nc3ccccc3)n2)nnc1-c1cccnc1	inconclusive: 14.1 µM [inhibitor, single point]	–
O=C(CSc1ncn[nH]1)N1N=C2/C(=C/c3ccccc3)CCCC2C1c1ccccc1 (configuration not stated)	–	inactive: -4.29%
CC1CN(CC(O)COC(c2ccc(Cl)cc2)c2ccc(Cl)cc2)CC(C)O1 (configuration not stated)	inconclusive: 35.5 µM [inhibitor, single point]	–
CP(=O)(O)C1=CCNCC1	inconclusive: 0.0089 µM [inhibitor, full curve]	–
CC(=O)c1nn(-c2cccc(C)c2)cc1C(=O)c1cccc(Br)c1	inconclusive: 3.55 µM [inhibitor, partial curve, poor fit]	–
Cc1ccc(NC(=O)c2ccc3ccccc3n2)cc1S(=O)(=O)N(C)C	inconclusive: 3.55 µM [activator, single point]	–
CC(C)C1Oc2ccccc2N(CC(=O)N(Cc2ccccn2)C2CC2)C1=O (configuration not stated)	–	inactive: -13.2%
CCOC(=O)c1oc2ccccc2c1NC(=O)COc1ccc(F)cc1	inconclusive: 20.6 µM [inhibitor, single point]	–
CCCN(CCC)C(=O)CC(c1ccccc1)c1ccco1 (configuration not stated)	–	inactive: -9.05%
O=S(=O)(c1ccc(F)cc1)N1CCC(N2CCCCCC2)CC1	inconclusive: 32.6 µM [inhibitor, single point]	–
COc1ccc(CC(=O)OCC(=O)c2ccc(OC)c(OC)c2)cc1	–	inactive: 7.76%
O=C(Nc1ccccc1)c1ccn[nH]1	inconclusive: 3.55 µM [activator, single point]	–
CCOc1ccc(N2C(=O)CC(N(Cc3ccco3)C(C)=O)C2=O)cc1 (configuration not stated)	inconclusive: 3.55 µM [activator, single point]	–
C[C@@H]1O[C@H](C[N+](C)(C)C)C[C@H]1O	inconclusive: 0.501 µM [activator, full curve, poor fit]	–
COc1cc(OC)nc(N/N=C(\c2ccccc2)c2ccncc2)n1	inconclusive: 15.8 µM [inhibitor, partial curve, poor fit]	–
COc1ccc(OC)c(NC(=O)C2CC(/C=C/c3ccccc3)=NO2)c1 (configuration not stated)	inconclusive: 0.398 µM [inhibitor, partial curve, poor fit]	–
COC(=O)CSc1nnc(SCc2ccc(OC)cc2)s1	inconclusive: 5.01 µM [inhibitor, single point]	–
Brc1cccc(OCCCN2CCCCCC2)c1	inconclusive: 11.2 µM [inhibitor, partial curve, poor fit]	–
O=C(C[n+]1cc(-c2ccc(Br)cc2)n2c1CCCCC2)c1ccccc1	inconclusive: 12.6 µM [inhibitor, partial curve, poor fit]	–
CCN(CC)C(=O)c1ccc(-c2cccs2)s1	inconclusive: 7.08 µM [activator, full curve, poor fit]	–

Quoted at random: 2 records from the list.
SMILES	Potency	activity change, negative = inhibition
CP(=O)(O)C1=CCNCC1	inconclusive: 0.0089 µM [inhibitor, full curve]	–
COc1ccc(OC)c(NC(=O)C2CC(/C=C/c3ccccc3)=NO2)c1 (configuration not stated)	inconclusive: 0.398 µM [inhibitor, partial curve, poor fit]	–
